Our source for the binding values is paper doi:10.1101/2021.05.31.446447.

These are yes or no findings as the source states them, for the method shown. In cells and extracts the contact can be indirect. Binding can be weak; no strength is given. Where a sequence is shown, tags or fusion partners need not be part of it.

This assay deals with dCTCF C-terminal domain, GST-fused (Drosophila melanogaster). The assay is described as follows: pull-down.

B1: CP190 M domain [245-606], 6xHis-thioredoxin-fused (domain or fragment, UniProt Q24478 245-606)
chain: KEFAEQQRMRKQIAAEYGDNDPEYDGGMLYDDVHAGDDDDDDMPPQPSTSKQQSPQGTQTQLEHGSTTIILKQDSPSQTPTIIVKDSSNAKLNHTKIIAEVLRQYPHIVKGHKNIKLKIMPNTPAAPTEKSAPATVKPPANQSSATTSPHKKLHVSFKADKSTPLITAQQKAASSQQKSGTSQTTGNQGTGANPPANTAAAQKRRIDSKTMHALIAQGAENTTGPWLCLRCGVNGRPISIPSYRGFRRHLINTHKETIDPALCEHCGWRSVNNRELHFHMYMEHQTKSLLYTFAECALCNQSYRTKGELEAHINEVHTDDNKQQCIYCNKVFEQELQLYRHMKSYHKEQALEDGIIDETDEE
For the molecule B1, the binding entry is “binds”.

B2: CP190 BTB domain [1-126], 6xHis-thioredoxin-fused (domain or fragment, UniProt Q24478 1-126)
chain: MGEVKSVKVDNWGVFFLQKLQNFFNKTDYCDLTLQFRDNSQLKVHRLVLSACTDYFNVLEQTCEIVDDALIMPNEFQADVVVPIVNFMYTGTLEFELKMYGKLLRTAKEMNMTVLLKLLEAHRRTM
For the molecule B2, the binding entry is given as “binds”.
